PubChem BioAssay AID743121 | NCATS, 2013
In all, the deposit lists about 26,000 reagents; this is an unselected part. In the full data, 167 (0.63%) were called active. 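Calls are per gene from RSA p-values that are not deposited; an individual active-marked siRNA can sensitise only weakly.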 Entries without a mark were called inactive. Reagents against one gene are numbered here.

Test: 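Knock-downs that sensitise breast cancer cells to camptothecin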 (primary screen)
Cells: MDA-MB-231 cells, a human breast cancer line
Knock-down reagent: single siRNA against human genes, 20 nM siRNA (0.8 pmol per well)
Duration: 120 h (drug added 48 h after transfection, read 72 h later)
Conditions: camptothecin 20 nM (about EC30) for 72 h; vehicle 0.1% DMSO in parallel plates
Read-out: 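CellTiter-Glo ATP signal, scaled to control siRNA as percent viability; sensitisation given as log2 of untreated divided by camptothecin-treated viability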
Reading the numbers: log2 vehicle/camptothecin viability: higher = stronger sensitisation to camptothecin; viability with camptothecin and viability without drug: higher = more viable cells
Active means: 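Active genes have an RSA gene-level p-value below 0.001, computed from the ratios of their separate siRNAs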

| gene | siRNA no. | log2 vehicle/camptothecin viability | viability with camptothecin (% of control) | viability without drug (% of control) |
| --- | --- | --- | --- | --- |
| IGFBP2 | 1 | -0.077 | 96 | 91 |
| IGFBP2 | 2 | -0.3 | 115 | 93.8 |
| IGFBP2 | 3 | -0.316 | 69.7 | 56 |
| CPB1 | 1 | -0.154 | 99.5 | 89.4 |
| CPB1 | 2 | -0.263 | 76.9 | 64.1 |
| CPB1 | 3 | -0.535 | 58.4 | 40.3 |
| KRIT1 | 1 | -0.251 | 70.5 | 59.2 |
| KRIT1 | 2 | -0.145 | 104 | 94.2 |
| KRIT1 | 3 | -0.159 | 18.2 | 16.3 |
| NR2E3 | 1 | -0.263 | 40.8 | 34 |
| NR2E3 | 2 | 0.211 | 74.3 | 86 |
| NR2E3 | 3 | 0.839 | 45.2 | 80.8 |
| NR2E3 | 4 | 0.246 | 66.5 | 78.9 |
| OPRL1 | 1 | -0.111 | 34.7 | 32.1 |
| OPRL1 | 2 | -0.597 | 97.6 | 64.5 |
| OPRL1 | 3 | -0.289 | 52.1 | 42.6 |
| OPRL1 | 4 | -0.397 | 68.2 | 51.8 |
| RCHY1 | 1 | -0.248 | 123 | 104 |
| RCHY1 | 2 | -0.18 | 82.5 | 72.8 |
| RCHY1 | 3 | -0.333 | 52.7 | 41.8 |
| RCHY1 | 4 | -0.267 | 117 | 97.4 |
| ERN1 | 1 | -0.0272 | 107 | 105 |
| ERN1 | 2 | -0.221 | 73.4 | 62.9 |
| ERN1 | 3 | -0.144 | 101 | 91.8 |
| ERN1 | 4 | -0.686 | 110 | 68.4 |
| APEX2 | 1 | -0.0559 | 67.8 | 65.2 |
| APEX2 | 2 | 0.0503 | 58.9 | 61 |
| APEX2 | 3 | -0.469 | 47.8 | 34.6 |
| ITCH | 1 | -0.302 | 74.2 | 60.2 |
| ITCH | 2 | 0.091 | 48 | 51.1 |
| ITCH | 3 | -0.0381 | 59.7 | 58.2 |
| ITCH | 4 | -0.0255 | 100 | 98.5 |
| GPA33 | 1 | -0.538 | 85.9 | 59.2 |
| GPA33 | 2 | -0.283 | 72 | 59.1 |
| GPA33 | 3 | -0.0349 | 88.5 | 86.3 |
| GPA33 | 4 | -0.349 | 56.1 | 44 |
| GLI3 | 1 | 0.71 | 42.2 | 69.1 |
| GLI3 | 2 | -0.14 | 121 | 110 |
| GLI3 | 3 | -0.441 | 79.6 | 58.6 |
| PROZ | 1 | -0.338 | 92.6 | 73.3 |
| PROZ | 2 | -0.23 | 25 | 21.3 |
| PROZ | 3 | -0.284 | 101 | 83.2 |
| PROZ | 4 | 0.0398 | 92.1 | 94.7 |
| HNRNPUL2 | 1 | -0.24 | 101 | 85.7 |
| HNRNPUL2 | 2 | -0.216 | 105 | 90.1 |
| HNRNPUL2 | 3 | -0.405 | 110 | 83.2 |
